Measurements reported in PubChem BioAssay AID743454 (Peter MacCallum Cancer Centre, 2014).
In all, the deposit lists about 18,000 reagents; shown is an unselected part. 450 of them (2.5%) count as active. 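Single biological run; no consistent viability z cut-off exists, so the class columns, not z-scores, define the calls.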 Entries without a mark were called inactive.

- Assay: 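Search for knock-downs that restore vorinostat killing in resistant colon cancer cells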 (primary screen)
- Cells: human HCT116-VR colon cancer cells, selected for vorinostat resistance
- Reagents: siRNA pool against human genes, 40 nM siRNA pool
- Duration: vorinostat for 24 h, read-out about 72 h after transfection
- Challenge: vorinostat at 2.5 µM final
- Measured: 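Two measures, CellTiter-Fluor viability and luminescent caspase 3/7 activity, each as fold change against same-plate mock wells, mean of duplicates, then screen-wide robust z-score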
- Reading the numbers: viability robust z-score: higher = more viable cells than screen typical; caspase robust z-score: higher = more caspase 3/7 activity than screen typical
- Call rule: 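a knock-down is a hit when classed RV1 or RV2 for lowered viability, or CA1 or CA2 for caspase activation; those lethal without drug were dropped; hits were retested singly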

no.	target gene	viability hit class	caspase hit class	viability robust z-score	caspase robust z-score
1	KISS1R	no change	no change	0.61	1.58
2	CTAG2	no change	no change	-0.63	-0.92
3	OR5K3	no change	no change	0.8	-1.08
4	TOR1B	no change	no change	0.01	-0.19
5	ZNF544	no change	no change	0.58	3.33
6	GNA13	no change	no change	0.99	0.82
7	ULBP2	no change	no change	0.36	-0.74
8	ZNF609	no change	no change	0	1.96
9	PIWIL3	no change	no change	0.41	-0.03
10	ADRB1	no change	no change	-1.11	0.78
11	POLL	no change	no change	-0.06	-0.29
12	FAM131C	no change	no change	-0.87	0.68
13	PFKFB1	no change	no change	-1.83	2.25
14	PPP2R2D	no change	no change	0.24	0.01
15	ZWINT	no change	no change	-0.09	0.4
16	FAM234B	no change	no change	-0.12	-0.6
17	DDX47	no change	no change	-1.44	-0.46
18	ABHD10	no change	no change	0.36	3.13
19	EYA3	no change	no change	-2.54	-0.76
20	HPCA	no change	no change	-0.22	-0.4
21	REL	no change	no change	1.06	-0.32
22	ACY1	no change	no change	-1.38	3.59
23	NUDT10	RV2 (reduced viability) (active)	no change	-3.05	1.02
24	H2BC14	no change	no change	-0.91	0.98
25	MYMK	no change	no change	0.88	3.43
26	PABPC1L2A	no change	no change	-0.12	-0.58
27	HOXB1	no change	no change	0.7	2.22
28	DDX31	no change	no change	-1.39	1.74
29	ZNF585A	no change	no change	0.16	0.66
30	OTULINL	no change	no change	-0.1	-0.06
31	FITM1	no change	no change	-1.5	-0.83
32	NUMB	no change	no change	0.42	-0.44
33	MAGEB4	no change	no change	0.48	0.5
34	ALDH7A1	no change	no change	-1.38	2.07
35	TTLL6	no change	no change	0.28	-0.86
36	RAN	no change	no change	-5.82	1.02
37	KLRK1	no change	no change	-0.47	-0.8
38	DDHD1	no change	no change	0.16	-0.12
39	INKA2	no change	no change	-0.81	4.5

A portion from the list above, for reference:
no.	target gene	viability hit class	caspase hit class	viability robust z-score	caspase robust z-score
26	PABPC1L2A	no change	no change	-0.12	-0.58
27	HOXB1	no change	no change	0.7	2.22
28	DDX31	no change	no change	-1.39	1.74
29	ZNF585A	no change	no change	0.16	0.66
30	OTULINL	no change	no change	-0.1	-0.06
